The source of these data is article PMC4624681 (2015).

Sequences of proteins named here, by UniProt entry; tags and fusion partners are left off. Residues count along the entry.
UniProt Q8TDQ0, residues 22-124: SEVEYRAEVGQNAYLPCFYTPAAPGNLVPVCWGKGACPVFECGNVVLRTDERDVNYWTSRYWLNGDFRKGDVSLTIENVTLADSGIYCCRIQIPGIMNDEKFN

Results are given in words; binding and its absence hold for the method and conditions named.

Common to all, as to assay: AUC; both purified
The target in experiment [1] is Ig V domain of hTIM-3 (human) (UniProt Q8TDQ0).
The target of experiment [2] is Ig V domain of hTIM-4 (human) (UniProt Q96H15).
Experiment [3] deals with Ig V domain of human T-cell immunoglobulin and mucin domain protein 1 (hTIM-1) (human) (UniProt Q96D42).

For “Ig V domain of hTIM-3 (from UniProt Q8TDQ0 22-124) (domain or fragment)”, the binding entry in experiment [1] is on record as “no binding (tested: A280nm absorption of about 0.8)”.

B1: Ig V domain of hTIM-4 (domain or fragment, UniProt Q96H15 22-134)
chain: VTSETVVTEVLGHRVTLPCLYSSWSHNSNSMCWGKDQCPYSGCKEALIRTDGMRVTSRKSAKYRLQGTIPRGDVSLTILNPSESDSGVYCCRIEVPGWFNDVKINVRLNLQRA
B1: in experiment [2], the binding result is “no binding (tested: A280nm absorption of about 0.8)”.

B2: Ig V domain of human T-cell immunoglobulin and mucin domain protein 1 (hTIM-1) (domain or fragment, UniProt Q96D42 22-127)
chain: VKVGGEAGPSVTLPCHYSGAVTSMCWNRGSCSLFTCQNGIVWTNGTHVTYRKDTRYKLLGDLSRRDVSLTIENTAVSDSGVYCCRVEHRGWFNDMKITVSLEIVPP
Consider B2, for which the binding result in experiment [3] was “no binding (tested: A280nm absorption of about 0.8)”.
